According to publication PMC8960810:
Results are given in words; binding and its absence hold for the method and conditions named. Binding seen in cells or lysates may run through a third protein. Some results given as binding are weak or reduced against the parent protein; the word gives no strength.

Biological target: T1, SLC7A11 (mouse (endogenous in liver tissue)) (UniProt Q9WTR6)
T1 sequence: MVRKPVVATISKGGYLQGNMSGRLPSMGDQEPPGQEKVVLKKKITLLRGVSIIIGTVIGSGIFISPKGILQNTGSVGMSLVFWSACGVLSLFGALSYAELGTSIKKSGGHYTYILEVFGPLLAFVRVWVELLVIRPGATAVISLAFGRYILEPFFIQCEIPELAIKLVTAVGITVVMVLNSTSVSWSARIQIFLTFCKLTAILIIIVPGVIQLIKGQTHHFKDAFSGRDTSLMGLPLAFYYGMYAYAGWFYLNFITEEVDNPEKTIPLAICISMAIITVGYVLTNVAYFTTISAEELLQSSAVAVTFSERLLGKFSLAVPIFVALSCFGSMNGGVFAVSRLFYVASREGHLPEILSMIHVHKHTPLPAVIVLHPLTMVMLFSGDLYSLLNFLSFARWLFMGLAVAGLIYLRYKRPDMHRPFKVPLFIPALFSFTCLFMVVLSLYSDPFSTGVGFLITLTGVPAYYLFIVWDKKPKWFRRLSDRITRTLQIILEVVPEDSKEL
Assay: co-IP; endogenous proteins from liver tissue of CCl4-treated (ALI) mice after MSC-Exo treatment; Pierce Co-Immunoprecipitation Kit; precipitation with anti-SLC7A11, anti-CD44 or anti-OTUB1, Western blot; 1% of the sample as input

binding: binds
B1: CD44 (protein, UniProt P15379 23-778)
chain: QIDLNVTCRYAGVFHVEKNGRYSISRTEAADLCQAFNSTLPTMDQMKLALSKGFETCRYGFIEGNVVIPRIHPNAICAANHTGVYILVTSNTSHYDTYCFNASAPPEEDCTSVTDLPNSFDGPVTITIVNRDGTRYSKKGEYRTHQEDIDASNIIDDDVSSGSTIEKSTPEGYILHTYLPTEQPTGDQDDSFFIRSTLATIASTVHSKSHAAAQKQNNWIWSWFGNSQSTTQTQEPTTSATTALMTTPETPPKRQEAQNWFSWLFQPSESKSHLHTTTKMPGTESNTNPTGWEPNEENEDETDTYPSFSGSGIDDDEDFISSTIATTPRVSARTEDNQDWTQWKPNHSNPEVLLQTTTRMADIDRISTSAHGENWTPEPQPPFNNHEYQDEEETPHATSTTPNSTAEAAATQQETWFQNGWQGKNPPTPSEDSHVTEGTTASAHNNHPSQRITTQSQEDVSWTDFFDPISHPMGQGHQTESKDTDSSHSTTLQPTAAPNTHLVEDLNRTGPLSVTTPQSHSQNFSTLHGEPEEDENYPTTSILPSSTKSSAKDARRGGSLPTDTTTSVEGYTFQYPDTMENGTLFPVTPAKTEVFGETEVTLATDSNVNVDGSLPGDRDSSKDSRGSSRTVTHGSELAGHSSANQDSGVTTTSGPMRRPQIPEWLIILASLLALALILAVCIAVNSRRRCGQKKKLVINGGNGTVEDRKPSELNGEASKSQEMVHLVNKEPSETPDQCMTADETRNLQSVDMKIGV
